Measured values as given in PubChem BioAssay AID504467 (National Center for Advancing Translational Sciences (NCATS), 2011).
Out of some 330,000 compounds screened, about 7,700 (2.3%) were called active. The shares of active, inactive and inconclusive entries below differ from those in the screen. Calls come from the whole dose curve; as a rule, active = well fitted inhibition curve with a large enough effect; inconclusive = small, poorly fitted or top-dose-only effect, or effect the other way; inactive = flat fitted curve, though single readings scatter. Potencies of inconclusive entries are doubtful fits and often do not repeat.

assay: qHTS screen for small molecules that inhibit ELG1-dependent DNA repair in human embryonic kidney (HEK293T) cells expressing luciferase-tagged ELG1; conditions: HEK293T ELG1-luciferase reporter, luminescence, 16 h, DNA damage induced by 5-fluorouridine; series mostly up to 46.1 µM; note: nearly all actives have a fitted effect of over 55% in size
Outline: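 Step one: seed 2,000 cells per well. Step two: pin-transfer compound or DMSO alongside 5-fluorouridine. Step three: incubate 16 hr, 37 °C, 5% CO2. Step four: add ONE-Glo, wait 30 min, read luminescence.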
Potency is the fitted concentration of half-maximal effect.

Row | SMILES | Potency
1 | O=C(CN1C(=O)NC2(CCc3ccccc32)C1=O)Nc1ccccc1C(F)(F)F (configuration not stated) | inactive
2 | NC(=O)C1CCN(C(=O)c2ccc(Cl)c(S(=O)(=O)N3CCCCCC3)c2)CC1 | inconclusive: 13 µM [activator, partial curve]
3 | CCN(CC)S(=O)(=O)c1cccc(C(=O)NNC(=O)C2=NN(c3ccccc3)C(=O)CC2)c1 | inactive
4 | CCc1nnc(NC(=O)c2cccc(S(=O)(=O)N(C)c3ccc(OC)cc3)c2)s1 | inconclusive: 23.1 µM [inhibitor, single point]
5 | O=C1NC(c2ccncc2)Nc2sc3c(c21)CCCC3 (configuration not stated) | inconclusive: 25.9 µM [activator, single point]
6 | CCCCN=C1NN=C(c2ccc(C)c(C)c2)CS1 | inconclusive: 6.51 µM [activator, single point]
7 | CCCCCCCC(=O)C(C)C(=O)N(C)[C@H](Cc1ccc(OC)cc1)C(=O)N(C)[C@H](C(N)=O)C(C)C (some centres not stated) | inconclusive: 29.1 µM [inhibitor, single point]
8 | Cc1ccc(C(=O)N2CCN(c3ccccc3O)CC2)cc1S(=O)(=O)N1CCCCC1 | inconclusive: 13 µM [inhibitor, partial curve, poor fit]
9 | CCN(Cc1ccc(O)cc1)CC1CCCN(CCc2cccc(F)c2)C1 (configuration not stated) | inconclusive: 5.17 µM [inhibitor, partial curve, poor fit]
10 | COCCn1c(=S)[nH]c2cc(C(=O)N3CCN(c4ccc(F)cc4)CC3)ccc2c1=O | inactive
11 | COCCN(CCOC)S(=O)(=O)c1ccc(C(=O)Nc2nc(-c3ccccc3)c(C(=O)c3ccccc3)s2)cc1 | inconclusive: 18.4 µM [inhibitor, partial curve, poor fit]
12 | Cc1ccc(N2C(=O)CC3(CCCC3)CC2=O)cc1 | inconclusive: 20.6 µM [activator, single point]
13 | CSc1cccc(CN2CCCC(C(=O)Nc3cccc(-n4cccn4)c3)C2)c1 (configuration not stated) | inactive
14 | CCC(=O)n1nc(-c2cccnc2)nc1NCc1ccccc1 | inactive
15 | O=C(c1ccc(CSc2ccc(Cl)cc2)cc1)N1CCCC1 | inactive
16 | CC(C)(C)C(=O)CN1C2=NCCCN2c2ccccc21 | inactive
17 | Cc1cc(C)c2cc(CN(CCCN(C)C)C(=S)NCc3ccccc3)c(=O)[nH]c2c1 | inconclusive: 20.6 µM [activator, partial curve, poor fit]
18 | CCOC(=O)/C(C#N)=C/N=c1ccc(C)cn1C | inconclusive: 20.6 µM [activator, partial curve]
19 | C/C(=N\NC(=O)c1cccc(N/N=C(\C)c2ccccc2)c1)c1ccccc1 | inconclusive: 7.31 µM [activator, partial curve]
20 | CC(=O)Nc1ccc(NC(=O)CSc2nc3ccccc3c(=O)n2CCCN2CCOCC2)cc1 | inconclusive: 18.3 µM [activator, single point]
21 | COc1ccc(C(=O)N/N=C/c2c[nH]c3ccccc23)cc1 | inconclusive: 8.2 µM [activator, partial curve, poor fit]
22 | CCCN(CCC)C(=O)CSc1nc2ccccc2c(=O)n1C1CCCC1 | inconclusive: 18.4 µM [inhibitor, partial curve, poor fit]
23 | Cc1ccc(-c2nnc(NC3CCCCC3)c3ccccc23)cc1S(=O)(=O)N1CCN(C)CC1 | active: 23.1 µM
24 | Cc1cccc(CSc2nc3c(c(=O)n2C)SCC3)c1 | active: 14.6 µM

Row | SMILES | Potency
25 | COc1ccc(OC)c(NC(=O)C2CCCN2C(=O)C2CCC(C)CC2)c1 (configuration not stated) | inconclusive: 29.1 µM [inhibitor, single point]
26 | COc1ccccc1NC(=O)CSc1nnc(CC(=O)Nc2cccc(C(F)(F)F)c2)n1C | inconclusive: 18.4 µM [inhibitor, single point]
27 | COc1ccccc1CC(=O)O/N=C(\N)c1ccccn1 | inconclusive: 13 µM [activator, partial curve]
28 | Cc1ccc2nc(NC(=O)CSc3nnc(C)c(=O)n3N)sc2c1 | inconclusive: 2.59 µM [activator, full curve]
29 | O=C(NCc1ccc2c(c1)OCO2)C1CCC(CNS(=O)(=O)c2ccccc2)CC1 (configuration not stated) | inconclusive: 20.6 µM [inhibitor, partial curve, poor fit]
30 | COc1ccc(N2CCN(CC(O)COCCOc3ccc(Br)cc3)CC2)cc1 (configuration not stated) | inconclusive: 11.6 µM [inhibitor, partial curve, poor fit]
31 | BrC(=C\c1ccccc1)/C=N/Nc1nc(N2CCOCC2)nc(N2CCOCC2)n1 | active: 16.4 µM
32 | COc1ccc(CN(C(=O)c2snc(C(N)=O)c2N)C(C)C(=O)NCc2ccc(F)cc2)cc1 (configuration not stated) | inactive
33 | O=C(CN1C(=O)CC(c2ccccc2)S(=O)(=O)c2ccccc21)N1CCCCC1 (configuration not stated) | inactive
34 | Cc1ccc(N(CC(=O)NCc2ccco2)C(=O)CCC(=O)Nc2ccccn2)c(C)c1 | inactive
35 | COc1ccc(-c2ccc(CO)o2)cc1N | inconclusive: 20.6 µM [activator, partial curve]
36 | Cc1cc(=O)oc2cc(OCC(=O)OCC(=O)N3CCC(C)CC3)ccc12 | inactive
37 | Cc1ccc2c(c1)cc(CN(Cc1cccnc1)C(=O)c1ccccc1)c1nnnn12 | inconclusive: 25.9 µM [inhibitor, single point]
38 | COCCNS(=O)(=O)c1ccc(OCC(=O)OC)c(Cl)c1 | inactive
39 | CCCN1Cc2cccc(C(=O)NC(CC(=O)OCC)c3ccc(OC(C)C)cc3)c2C1=O (configuration not stated) | inconclusive: 29.1 µM [inhibitor, single point]
40 | O=C(/C=C/c1ccc(O)c(O)c1)OC(Cc1ccc(O)c(O)c1)C(=O)O (configuration not stated) | inactive
41 | CCNC(=O)CC1SC(=Nc2ccc(Cl)cc2)N(CC)C1=O (configuration not stated) | inactive
42 | CC(C)CN1C(=O)/C(=C/c2ccco2)NC1=S | inactive
43 | CC(C)c1ccccc1NC(=O)COC(=O)Cc1ccsc1 | inconclusive: 25.9 µM [activator, partial curve, poor fit]
44 | Cc1ccc(S(=O)(=O)N(C)CC(=O)Nc2cc(C)ccn2)cc1 | inconclusive: 9.2 µM [activator, partial curve]
45 | CCC(=O)N1CCN(c2ccc(NC(=O)c3ccc(Br)o3)cc2)CC1 | inconclusive: 8.2 µM [activator, partial curve, poor fit]
46 | CCCn1cc(S(=O)(=O)CC(=O)Nc2ccc(OC)cc2OC)c2ccccc21 | inactive
47 | Cc1ccc(C(=O)Nc2cccc(C(=O)NCc3ccccc3)c2)cc1 | inconclusive: 29.1 µM [inhibitor, single point]
48 | Cc1cc(C)cc(NC(=O)[C@H](Cc2c[nH]c3ccccc23)NC(=O)[C@@H]2Cc3ccccc3CN2)c1 | inactive

Row | SMILES | Potency
49 | c1ccc2c(-n3cccn3)cccc2c1 | inconclusive: 23.1 µM [activator, single point]
50 | N#Cc1c(C(F)(F)F)cc(-c2cccs2)nc1SCC(=O)O | inactive
51 | O=C1Nc2ccc(Br)cc2/C1=C/C(=O)c1ccc2c(c1)OCO2 | inactive
52 | Brc1ccc(-c2nc(-c3ccncc3)no2)cc1 | inconclusive: 4.11 µM [activator, full curve]
53 | CCOC(=O)c1ccc(N/C=C/C(=O)c2ccco2)cc1 | inconclusive: 2.91 µM [activator, full curve]
54 | COC(C[C@@H]1O[C@@H]1[C@H](O)COCc1ccccc1)OC | inactive
55 | O=C(CSc1nnc(-c2ccc(S(=O)(=O)N3CCCC3)cc2)o1)NCc1ccco1 | inactive
56 | Cc1ccc(-c2nnc(N(C)C(=O)c3cccnc3)s2)cc1 | inconclusive: 7.94 µM [activator, partial curve]
57 | C=CCNC(=O)NC(=O)CSc1nnc(C(F)(F)F)n1C | inactive
58 | CCOCCCN(C)C1CCN(C(=O)c2oc3ccccc3c2NC(=O)c2ccc(F)cc2)CC1 | inactive
59 | CCn1c(C)nc2cc(C(=O)NNC(=S)Nc3ccc(Cl)cc3)ccc21 | inactive
60 | CCOC(=O)/C=C(\C)N1N=C(c2ccccc2)CC1c1ccccc1 (configuration not stated) | inconclusive: 29.1 µM [activator, single point]
61 | Cc1noc(C)c1S(=O)(=O)N1CCCC(C(=O)Nc2nccs2)C1 (configuration not stated) | inconclusive: 23.1 µM [inhibitor, single point]
62 | Cc1cccc(NC(=O)NC2CCCCCCC2)c1C | inconclusive: 14.6 µM [activator, single point]
63 | O=C(Nc1cccc2ncccc12)c1ccc(OCc2ccccc2)cc1 | inconclusive: 5.17 µM [inhibitor, full curve]
64 | COc1cc(/C=C/C(=O)NCCN2CCOCC2)cc(OC)c1OC | inconclusive: 16.4 µM [activator, single point]
65 | COC(=O)C1=CN(Cc2ccccc2)C=C(C(=O)OC)C1c1cc(F)ccc1F | inactive
66 | O=C(Nc1cccc(-c2nc3ccccc3s2)c1)c1cc(=O)c2ccccc2o1 | active: 9.2 µM
67 | CCOc1ccc(S(=O)(=O)NCCC(=O)NCCOc2ccccc2)cc1 | inactive
68 | CCc1ccc(C(=O)NC(=S)Nc2ccc(N3CCOCC3)cc2)cc1 | inconclusive: 6.51 µM [inhibitor, partial curve]
69 | CC(=O)c1c(C)[nH]c(C(=O)OCC(=O)N2CCCC2=O)c1C | inconclusive: 29.1 µM [activator, single point]
70 | CCOCc1c(C(=O)Nc2cc(OCC)c(N3CCOCC3)cc2OCC)oc2ccccc12 | active: 13 µM
71 | O=C(Nc1ccc(F)cc1)N1CCN(c2nc3ccccc3s2)CC1 | inconclusive: 3.26 µM [inhibitor, single point]
72 | c1ccc(SCCc2ccncc2)cc1 | inconclusive: 18.4 µM [activator, single point]

Nos. 71–72, quoted:
Row | SMILES | Potency
71 | O=C(Nc1ccc(F)cc1)N1CCN(c2nc3ccccc3s2)CC1 | inconclusive: 3.26 µM [inhibitor, single point]
72 | c1ccc(SCCc2ccncc2)cc1 | inconclusive: 18.4 µM [activator, single point]
